## Screening data, single-dose tests

Chains of the proteins cited; added tags and fusions are not shown.
UniProt I6X8D2, whole entry: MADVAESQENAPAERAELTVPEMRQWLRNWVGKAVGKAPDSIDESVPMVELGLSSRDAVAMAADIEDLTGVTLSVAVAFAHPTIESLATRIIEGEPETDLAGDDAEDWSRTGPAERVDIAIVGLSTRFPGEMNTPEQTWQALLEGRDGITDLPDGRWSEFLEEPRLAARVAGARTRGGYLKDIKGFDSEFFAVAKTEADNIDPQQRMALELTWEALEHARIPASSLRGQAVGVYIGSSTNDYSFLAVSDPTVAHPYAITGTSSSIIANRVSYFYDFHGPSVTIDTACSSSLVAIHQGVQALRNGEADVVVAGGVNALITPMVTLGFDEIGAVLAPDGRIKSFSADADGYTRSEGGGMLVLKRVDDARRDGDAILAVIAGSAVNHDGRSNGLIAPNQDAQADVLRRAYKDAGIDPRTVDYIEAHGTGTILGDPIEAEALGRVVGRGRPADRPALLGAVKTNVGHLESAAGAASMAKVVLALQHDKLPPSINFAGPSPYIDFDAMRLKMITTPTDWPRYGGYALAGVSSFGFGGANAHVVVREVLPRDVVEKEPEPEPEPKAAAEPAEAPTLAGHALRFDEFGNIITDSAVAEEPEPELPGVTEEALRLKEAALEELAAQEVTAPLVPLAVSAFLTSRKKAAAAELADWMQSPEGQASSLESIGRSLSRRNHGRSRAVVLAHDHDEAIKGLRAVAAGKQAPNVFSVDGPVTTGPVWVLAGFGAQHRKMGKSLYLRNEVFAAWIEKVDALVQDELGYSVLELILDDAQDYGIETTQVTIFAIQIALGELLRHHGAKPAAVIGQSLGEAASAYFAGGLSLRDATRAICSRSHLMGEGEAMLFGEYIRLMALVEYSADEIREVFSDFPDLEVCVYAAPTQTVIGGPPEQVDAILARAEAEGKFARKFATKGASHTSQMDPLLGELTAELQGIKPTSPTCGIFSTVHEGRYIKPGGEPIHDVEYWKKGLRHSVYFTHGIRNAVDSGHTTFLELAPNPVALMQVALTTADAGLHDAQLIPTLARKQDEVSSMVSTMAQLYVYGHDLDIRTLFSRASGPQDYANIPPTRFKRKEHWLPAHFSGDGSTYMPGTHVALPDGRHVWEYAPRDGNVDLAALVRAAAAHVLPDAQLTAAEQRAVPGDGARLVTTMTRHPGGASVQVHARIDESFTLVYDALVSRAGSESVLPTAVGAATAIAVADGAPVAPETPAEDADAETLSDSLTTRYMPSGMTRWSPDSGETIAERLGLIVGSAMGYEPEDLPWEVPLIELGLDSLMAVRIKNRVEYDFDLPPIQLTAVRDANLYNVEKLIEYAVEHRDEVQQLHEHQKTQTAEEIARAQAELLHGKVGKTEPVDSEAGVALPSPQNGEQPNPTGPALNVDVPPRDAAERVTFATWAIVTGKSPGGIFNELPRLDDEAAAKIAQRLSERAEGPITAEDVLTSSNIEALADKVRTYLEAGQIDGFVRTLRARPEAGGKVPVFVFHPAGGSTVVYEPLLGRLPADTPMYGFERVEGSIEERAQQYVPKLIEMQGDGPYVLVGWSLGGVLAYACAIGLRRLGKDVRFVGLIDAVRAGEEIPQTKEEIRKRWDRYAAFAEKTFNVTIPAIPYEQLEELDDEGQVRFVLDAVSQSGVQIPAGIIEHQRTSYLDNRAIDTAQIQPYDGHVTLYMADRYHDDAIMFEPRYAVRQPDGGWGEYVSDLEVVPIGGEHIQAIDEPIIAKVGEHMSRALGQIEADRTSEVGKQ
UniProt P9WNZ1, whole entry: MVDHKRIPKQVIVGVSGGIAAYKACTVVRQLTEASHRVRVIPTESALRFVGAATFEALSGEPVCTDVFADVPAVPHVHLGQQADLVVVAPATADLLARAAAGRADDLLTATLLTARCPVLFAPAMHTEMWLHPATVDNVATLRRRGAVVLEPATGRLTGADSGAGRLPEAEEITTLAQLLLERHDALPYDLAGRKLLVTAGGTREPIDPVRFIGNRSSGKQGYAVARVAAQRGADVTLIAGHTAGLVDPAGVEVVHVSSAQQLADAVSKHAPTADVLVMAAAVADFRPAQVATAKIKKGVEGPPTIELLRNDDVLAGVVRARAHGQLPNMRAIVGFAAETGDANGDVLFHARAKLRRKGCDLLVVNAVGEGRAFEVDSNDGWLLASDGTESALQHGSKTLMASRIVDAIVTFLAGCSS
UniProt P9WPC5, whole entry: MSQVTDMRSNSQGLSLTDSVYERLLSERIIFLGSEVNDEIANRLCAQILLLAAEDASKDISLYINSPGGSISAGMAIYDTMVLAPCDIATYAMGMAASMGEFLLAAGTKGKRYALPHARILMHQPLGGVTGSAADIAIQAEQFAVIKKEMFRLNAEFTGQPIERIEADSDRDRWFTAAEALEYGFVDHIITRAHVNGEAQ
UniProt P9WPC3, whole entry partner: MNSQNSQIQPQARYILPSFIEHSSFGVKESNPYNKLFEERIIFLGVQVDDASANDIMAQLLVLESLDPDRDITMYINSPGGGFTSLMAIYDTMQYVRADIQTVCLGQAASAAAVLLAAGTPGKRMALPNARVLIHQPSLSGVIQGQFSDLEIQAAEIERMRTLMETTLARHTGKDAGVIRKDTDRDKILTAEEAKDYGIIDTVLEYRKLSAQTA
UniProt P9WFT3, whole entry: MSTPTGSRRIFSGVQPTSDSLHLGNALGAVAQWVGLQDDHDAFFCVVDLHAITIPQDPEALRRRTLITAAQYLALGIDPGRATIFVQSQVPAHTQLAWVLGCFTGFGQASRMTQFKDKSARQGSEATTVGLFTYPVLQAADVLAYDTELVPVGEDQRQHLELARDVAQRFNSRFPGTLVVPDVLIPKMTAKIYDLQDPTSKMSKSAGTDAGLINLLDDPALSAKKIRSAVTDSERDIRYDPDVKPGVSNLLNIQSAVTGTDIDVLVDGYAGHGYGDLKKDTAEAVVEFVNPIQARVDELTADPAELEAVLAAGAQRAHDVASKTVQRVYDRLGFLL

Source: ChEMBL document CHEMBL3988442, “University of Dundee, Small-Polar-MMV Screening Library” (2021).

A: 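Enzyme assay of the thioesterase domain of polyketide synthase 13; the read-out is not stated. Target: Polyketide synthase Pks13, Mycobacterium tuberculosis (UniProt I6X8D2). Tested at 30 µM. The record gives no direction; the compounds picked for IC50 retests had high values, so higher reads as stronger inhibition. About 67,000 compounds were tested under these conditions; 0.46% (about 300) showed 50% or more at least once.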
B: 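Assay of Toxoplasma gondii numbers, read through their beta-galactosidase reporter with a colour substrate. Tested at 10 µM. Higher reads as fewer parasites (inferred from which compounds were picked for retests). Size under these conditions: about 67,000 compounds, about 260 of them at 50% or above in at least one test.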
C: 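Coenzyme A biosynthesis protein CoaBC, Mycobacterium tuberculosis (UniProt P9WNZ1). Enzyme assay of CoaBC with a phosphate dye (Biomol Green) read at 650 nm. Compounds at 30 µM. Direction is inferred from only a few compounds that gave an IC50; most scored high, so higher reads as stronger inhibition. Most strong results did not repeat in a second test. Size under these conditions: about 67,000 compounds, about 40 of them at 50% or above in at least one test.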
D: 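Protease assay of ClpP1P2, read by the AMC dye that it sets free. Target: ClpP1P2, Mycobacterium tuberculosis (UniProt P9WPC5 and UniProt P9WPC3). Concentration: 50 µM. Higher reads as stronger inhibition, judged from the few compounds that gave an IC50. Most other retested compounds had strongly negative values. About 69,000 compounds were tested under these conditions; 0.015% (about 10) showed 50% or more at least once.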
E: 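Cell assay of Leishmania donovani living inside macrophages; the read-out is not stated. Concentration: 30 µM. Direction is inferred from retests: higher values go with stronger inhibition. Of about 69,000 compounds tested this way, about 1,000 (1.5%) reached 50% or more in at least one test.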
F: 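Enzyme assay of tryptophanyl-tRNA synthetase; the read-out is not stated. Target: Tryptophan-tRNA ligase, Mycobacterium tuberculosis (UniProt P9WFT3). Concentration: 10 µM. Direction is not recorded; retested compounds ran higher, which suggests that high means inhibition. Of about 65,000 compounds tested this way, about 64 (0.098%) reached 50% or more in at least one test.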

Values are the deposited “Percent Effect”, in %. The controls that fix the scale are not given in the record; negative values are as filed. The compounds are a random part of those screened. A dash means the value is not listed here; it may have been measured.

{"structure": "Cc1ccc(N(CCC#N)C(=O)CN2CCCC2c2ccsc2)cc1C", "stereo": "centres undefined", "A": -17.56, "B": 1.734, "C": 10.59, "D": -38.81, "E": 44.82, "F": 0.387}
{"structure": "COc1ccc(CNC(C)c2cccc(Cl)c2)c(OC)c1OC", "stereo": "centres undefined", "A": -21.38, "B": -1.322, "C": -15.18, "D": -15.4, "E": 25.49, "F": 0.7105}
{"structure": "COc1cccc2cc(CNCc3ccnc(N4CCOCC4)c3)oc12", "A": -0.6016, "B": 0.9765, "C": -0.5931, "D": 1.347, "E": 14.19, "F": -3.521}
{"structure": "Cc1nc(C2CCCN2CC(=O)NCCc2ccc(Cl)cc2)no1", "stereo": "centres undefined", "A": -7.261, "B": 9.285, "C": 3.571, "D": -29.22, "E": 8.111, "F": -2.538}
{"structure": "CCCS(=O)(=O)N1CCC2(CN(c3cnn(C)c3)C(=O)CN2C)C1", "stereo": "centres undefined", "A": -4.744, "C": -1.035, "D": 7.409, "F": -0.3752}
{"structure": "CCOC(=O)C1CCN(C(=O)CN2CCCC2c2ccsc2)CC1", "stereo": "centres undefined", "B": 5.198, "C": 4.747, "D": -11.98, "E": -0.573, "F": -1.636}
{"structure": "[H][C@@]12CCN(C(=O)C3CCSCC3)C[C@]1(COC)CCO2", "B": -34.08, "E": 33.15}
{"structure": "Cc1nn(C(C)C)c(C)c1NC(=O)c1ccc(F)cc1", "A": -3.804, "B": 3.311, "C": 0.8485, "D": -18.11, "E": -12.56, "F": -3.232}
{"structure": "Oc1ccc(Cl)cc1CNCc1cccc(C(F)(F)F)c1", "A": 14.08, "B": 3.29, "C": 5.275, "D": 4.797, "E": 3.743, "F": 5.417}
{"structure": "CCCc1cc(NC2CCc3ncnn3C2)n2ncnc2n1", "stereo": "centres undefined", "A": -6.057, "B": -0.3284, "C": 3.625, "D": -5.048, "E": 15.57, "F": 1.069}
{"structure": "COCCN1CCCC(CCCc2ccccn2)(C(N)=O)C1", "stereo": "centres undefined", "A": 22.01, "B": -18.9, "C": 1.225, "D": -4.425, "E": 5.345}
{"structure": "Cn1nc(CN2CCCCC2)c2c1CN(C(=O)c1cccc(Cl)c1)C2", "A": 36.53, "B": 2.933, "C": -18.05, "D": 15.25, "E": 24.03, "F": -1.089}
{"structure": "COc1cc(OC)c(C2SCC(=O)Nc3n[nH]cc32)cc1OC", "stereo": "centres undefined", "A": -54.02, "B": 2.866, "C": 3.914, "D": -4.552, "E": 27.61, "F": -0.5297}
{"structure": "COc1ccc(Cl)cc1CCNC(=O)NCc1ccncc1", "A": -5.123, "B": -2.352, "C": 2.336, "D": -15.32, "E": 28.88, "F": 5.453}
{"structure": "CCNC(=O)CN1CCN(c2ccnc3c(F)ccc(F)c23)CC1", "A": -20.95, "B": 3.245, "C": 4.538, "D": 4.646, "E": 17.16, "F": 0.5623}
{"structure": "CN(C)CCOc1cc(NC(=O)COCC(F)(F)F)ccn1", "B": -0.8323, "C": -0.6452, "D": -2.599, "E": 17.43, "F": 0.6399}

2 of the entries, repeated:

structure,A,B,C,D,E,F
[H][C@@]12CCN(C(=O)C3CCSCC3)C[C@]1(COC)CCO2,-,-34.08%,-,-,33.15%,-
CCOC(=O)C1CCN(C(=O)CN2CCCC2c2ccsc2)CC1 (centres undefined),-,5.198%,4.747%,-11.98%,-0.573%,-1.636%